The values that follow come from article PMC5157023.

Results are given in words; binding and its absence hold for the method and conditions named. In cells and extracts the contact can be indirect. Some entries that bind do so weakly or less than the wild type. Tags and fused reporters may be left off the sequences shown.

This assay deals with V5-tagged RE-1 silencing transcription factor (REST) (UniProt Q13127). Nature of the assay: co-IP; V5 antibody-conjugated beads mixed with lysates of HEK293FT cells transfected with pcDNA_V5 or pcDNA_REST-V5; western blot of endogenous partners; lysis buffer 50 mM Tris-HCl pH 7.4, 150 mM NaCl, 5 mM EDTA, 0.2% TritonX-100, 15 U/ml DNAse I. Background: A western blot detects proteins with antibodies after separation by electrophoresis.

B1: HnRNP Q (protein, UniProt O60506 1-623)
chain: MATEHVNGNGTEEPMDTTSAVIHSENFQTLLDAGLPQKVAEKLDEIYVAGLVAHSDLDERAIEALKEFNEDGALAVLQQFKDSDLSHVQNKSAFLCGVMKTYRQREKQGTKVADSSKGPDEAKIKALLERTGYTLDVTTGQRKYGGPPPDSVYSGQQPSVGTEIFVGKIPRDLFEDELVPLFEKAGPIWDLRLMMDPLTGLNRGYAFVTFCTKEAAQEAVKLYNNHEIRSGKHIGVCISVANNRLFVGSIPKSKTKEQILEEFSKVTEGLTDVILYHQPDDKKKNRGFCFLEYEDHKTAAQARRRLMSGKVKVWGNVGTVEWADPIEDPDPEVMAKVKVLFVRNLANTVTEEILEKAFSQFGKLERVKKLKDYAFIHFDERDGAVKAMEEMNGKDLEGENIEIVFAKPPDQKRKERKAQRQAAKNQMYDDYYYYGPPHMPPPTRGRGRGGRGGYGYPPDYYGYEDYYDYYGYDYHNYRGGYEDPYYGYEDFQVGARGRGGRGARGAAPSRGRGAAPPRGRAGYSQRGGPGSARGVRGARGGAQQQRGRGVRGARGGRGGNVGGKRKADGYNQPDSKRRQTNNQNWGSQPIAQQPLQGGDHSGNYGYKSENQEFYQDTFGQQWK
Consider B1, for which the binding result was “binds”.
